The list shows a part of the results. Single values are uncertain here, since repeats match poorly.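 Cells: ReNCell VM human fetal ventral-midbrain neural progenitors, differentiated mitogen-free. Blinded raters compared doublecortin-stained (early neurons) or tyrosine hydroxylase-stained (dopaminergic neurons) images with untreated wells, where 0 means no change. After repeats and both raters were averaged, compounds scoring 2 or above became hits for retesting.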
These compounds were tested on ReNCell VM (assay: dopaminergic neuron differentiation score (TH+ cell fraction vs untreated, manual image score) (score (0 to 3)); higher = more TH+ dopaminergic neuron differentiation). Settings: library: Spectrum; 2 uM; 4 weeks; BDNF 10 ng/ml + GDNF 10 ng/ml.

Row | SMILES | dopaminergic neuron differentiation score
1 | N#C/C(=C\c1ccc(O)cc1)C(=O)O [alpha-CYANO-4-HYDROXYCINNAMIC ACID] | inactive: 0
2 | CNC(=O)Oc1ccc2c(c1)[C@]1(C)CCN(C)[C@@H]1N2C | inactive: 0
3 | CS(=N)(=O)CC[C@H](N)C(=O)O (some centres undefined) | inactive: 0
4 | COC1=CC(=O)O[C@@H](/C=C/c2ccccc2)C1 | inactive: 0
5 | CC[C@H]1CN2CC[C@H]1C[C@@H]2[C@@H](O)c1ccnc2ccc(OC)cc12 | inactive: 0
6 | C=C[C@H]1CN2CC[C@H]1C[C@H]2[C@H](O)c1ccnc2ccccc12 | inactive: 0
7 | C=CCN=C=S | inactive: 0
8 | CN1C[C@H](CNC(=O)OCc2ccccc2)C[C@@H]2c3cccc4c3c(cn4C)C[C@H]21 | inactive: 0
9 | CC(N)C(O)c1ccccc1 (centres undefined) | inactive: 0
10 | NP(N)(=O)NC(=O)c1ccc(F)cc1 | inactive: 0
11 | COc1cccc(C=O)c1OC | inactive: 0
12 | C=CC[C@]1(O)CC[C@H]2[C@@H]3CCC4=CC(=O)CCC4=C3C=C[C@@]21C | inactive: 0
13 | CC(=O)O[C@H]1C[C@@H]2CC[C@@H]3[C@H](CC[C@@]4(C)[C@H]3C[C@H]([N+]3(C)CCCCC3)[C@@H]4OC(C)=O)[C@@]2(C)C[C@@H]1[N+]1(C)CCCCC1 | inactive: 0
14 | CN1[C@@H]2CC[C@H]1C[C@@H](OC(=O)C(CO)c1ccccc1)C2 (some centres undefined) | inactive: 0
15 | Cc1ccc(-c2nc3ccc(C)cn3c2CC(=O)N(C)C)cc1 | inactive: 0
16 | O=P1(N(CCCl)CCCl)NCCCO1 (centres undefined) | inactive: 0
17 | NNCc1ccccc1 | inactive: 0
18 | CC(=O)[O][Hg][c]1ccccc1 | inactive: 0
19 | C[N+]1(C)[C@@H]2C[C@@H](OC(=O)[C@H](CO)c3ccccc3)C[C@H]1[C@@H]1O[C@@H]12 | inactive: 0

Single entries from the results shown.
`C=CC[C@]1(O)CC[C@H]2[C@@H]3CCC4=CC(=O)CCC4=C3C=C[C@@]21C` – dopaminergic neuron differentiation score: inactive: 0
`CS(=N)(=O)CC[C@H](N)C(=O)O` (some centres undefined) – dopaminergic neuron differentiation score: inactive: 0

From the supplement of paper PMC4635364
